For 106 compounds, host macrophage viability results are on record in the supplement of paper PMC12578635.

± gives the standard deviation of the averaged measurements. The list shows a part of the results. Single values are uncertain, as repeats are few or missing.

The subject of this experiment is RAW 264.7 macrophages infected with S. aureus JE2-lux. Nature of the experiment: host macrophage viability (CellTiter-Fluor) relative to DMSO vehicle; higher = more viable host cells. The settings on record: 10 µM; treatment time 4 h; gentamicin 50 µg/ml.
`Fc1ccccc1Nc1nc(=S)[nH]c2ccccc12`: the host macrophage viability is 119%. Consider `COc1cccc(C(=O)NCC(=O)N/N=C/c2ccc(Cl)cc2)c1`, for which the host macrophage viability is 131%. The value for `Cc1ccc(NC(=O)CSC2CC(=O)N(c3ccc(C)cc3)C2=O)cc1` (stereo unspecified) was 130%; that for `COCCn1c2ccccc2n2c(=O)n(Cc3cscn3)nc12` was 132%. As for `COc1cccc(OCC(=O)N2CCC3(CC2)CC(=O)c2ccccc2O3)c1`, the host macrophage viability was determined as 113%.

Consider `Cc1ccc(C)c(S(=O)(=O)c2cnc(SCC(=O)Nc3ccc(F)cc3F)[nH]c2=O)c1`, for which the host macrophage viability turned out to be 133%.

Turning to `CSc1ncc(C(=O)NC(c2ccccc2)c2cccnc2)cn1` (stereo unspecified), the host macrophage viability is 113%.

For the compound `Cc1ccc(-c2nc(C(N)=O)c3[nH]c(=O)n(C(C)C)c3n2)cc1C`, the host macrophage viability stood at 112%. The value for `O=C(CN(C(=O)C(=O)Nc1ccc2c(c1)OCCO2)N1CCOCC1)NC1CCCC1` was 103%; that for `COc1ccc(NC(c2ccccn2)c2oc(CO)cc(=O)c2O)cc1` (stereo unspecified) was 131%; that for `COc1ccc2c(c1)c(=O)c(Br)c(C)n2CC(=O)Nc1cccc(C)c1` was 107%. The result for `Cc1cc(O)c(C(c2ccncc2)N2CCC(C)CC2)c(=O)n1Cc1ccco1` (stereo unspecified) reads 111%. As to `O=C(NCCc1ccc(Cl)cc1)C(=O)Nc1ccon1`, the host macrophage viability is 100%.

Regarding `CC(C)(C)NC(=O)C(c1cccnc1)N(C(=O)c1csnn1)c1ccc(F)cc1` (stereo unspecified), the host macrophage viability amounted to 110%. Turning to `CC1CCN(C(=O)c2ccc(NC(=O)C(=O)Nc3ccc(F)c(Cl)c3)cc2)CC1`, the host macrophage viability is 149%. Turning to `CC(C)c1ccc(Cn2c(=O)c3sccc3n3c(=S)[nH]nc23)cc1`, the host macrophage viability came out at 81.1%. The result for `Cc1ccc(-n2ncc(C(=O)NCCN3CCc4ccccc4C3)c2C2CCNCC2)c(C)c1` reads 120%; that for `O=C(/C=C\c1ccc([N+](=O)[O-])cc1)N(Cc1cccnc1)c1nc2c(F)cc(F)cc2s1`, 110%. With `COc1ccc(Cl)cc1Nc1ncnc2sc(C)c(S(=O)(=O)N3CCCCC3)c12`, the host macrophage viability stood at 127%. Take `O=C(NCC1COc2ccccc2O1)c1cc2c(=O)oc3ccccc3c2s1` (stereo unspecified): the host macrophage viability was 129%. The value for `Cc1ccc(C)c2sc(N(Cc3cccnc3)C(=O)Cc3ccc(F)cc3)nc12` was 105%; that for `Cc1csc(NC(=O)CSc2nnc(-c3ccccn3)n2-c2ccc(Cl)cc2)n1` was 117%. On to `O=C(NCc1ccccc1)NC1(C(=O)NCc2ccc3c(c2)OCO3)CCCCC1`, for which the host macrophage viability is 115%. The result for `Cc1nn(C(C)CC(=O)NC(c2ccccc2)c2cccnc2)c(C)c1C` (stereo unspecified) reads 103%. In the case of `Nc1ncnc(Sc2nc3ccccc3[nH]2)c1[N+](=O)[O-]`, the host macrophage viability was found to be 107%.

Consider `O=C(CSc1nc2ccccc2cc1CC1CCCC1)NCc1ccccc1`, for which the host macrophage viability came to 111%. Consider `CCOc1ccccc1Nc1nc(-c2nnc(-c3ccc(C)cc3)o2)nc2ccccc12`, for which the host macrophage viability is 93.6%.

Take `COc1ccc(N2C(=O)c3nccnc3C2=O)cc1OC`: the host macrophage viability stood at 112%. The result for `Cc1sc(C)c(S(=O)(=O)N2CCc3ccccc3C2)c1-c1cc(C(F)(F)F)on1` reads 93.9%; that for `COc1ccc(NC(=O)Cn2cnc3c(cnn3-c3ccccc3)c2=O)cc1`, 102%.

Take `COc1ccc(S(=O)(=O)c2cn(CC(=O)Nc3cc(C)ccc3C)c3ccccc3c2=O)cc1`: the host macrophage viability turned out to be 123%. Regarding `CC(C)=CCSc1nc2sc3c(c2c(=O)[nH]1)CCCC3`, the host macrophage viability was determined as 104%. For the compound `CCOc1ccccc1CNC(=O)c1c(-c2ccccc2)nnc2ccc(C)cc12`, the host macrophage viability turned out to be 112%. The result for `Cc1nn(-c2ccccc2)c2c1C(c1ccc([N+](=O)[O-])cc1)C(C#N)=C(N)O2` (stereo unspecified) reads 116%; that for `Cn1cccc1-c1cc2n(n1)CCC(=O)N2CC(=O)NCc1cccnc1`, 118%. The result for `Cc1oc(-c2ccno2)cc1S(=O)(=O)NCc1ccc(Cl)cc1` reads 118%; that for `COCCNc1ncnc2c1c(C)c(C)n2-c1ccc(F)c(F)c1`, 112%; that for `COc1ccc(-c2ccc(=O)n(CCNC(=O)COc3ccccc3)n2)cc1`, 116%. The value for `CC(C)CCN1C(=O)CCc2cc(NS(=O)(=O)c3ccc(F)c(Cl)c3)ccc21` was 115%; that for `O=C(CC1Sc2ccc(C(F)(F)F)cc2NC1=O)Nc1ccc(OC(F)F)cc1` (stereo unspecified) was 116%. Regarding `CCOCCCNC(=O)Cc1csc2nc(-c3ccc(F)cc3)cn12`, the host macrophage viability came out at 118%.

On to `O=C(NCCCSc1nc2ccccc2s1)Nc1ncccn1`, for which the host macrophage viability came out at 102%. The result for `CCCn1/c(=N/C(=O)c2c(F)cccc2F)sc2cc(S(C)(=O)=O)ccc21` reads 113%.

As to `CC(=O)Nc1ccc(S(=O)(=O)Nc2ccc(-c3cn4ccc(C)nc4n3)cc2)cc1`, the host macrophage viability worked out at 140%. Consider `CCCCCC(=O)n1nc(-c2ccc(Cl)cc2)nc1N`, for which the host macrophage viability turned out to be 118%. Regarding `Cc1n[nH]c2c1C(c1ccc(OCc3ccccc3)cc1)C(C#N)=C(N)O2` (stereo unspecified), the host macrophage viability amounted to 127%. For the compound `CCOc1cc(/C=N/Nc2ncnc3[nH]cnc23)ccc1O`, the host macrophage viability was 118%. The value for `Cc1ccc(S(=O)(=O)N2CCCc3ccc(NS(=O)(=O)c4ccc(F)cc4C)cc32)cc1` was 101%; that for `C=CCc1cccc2cc(C(N)=O)/c(=N\Cc3ccccc3)oc12` was 117%. The result for `Cc1ccc(-c2noc(CCC(=O)Nc3ccc(CCc4nc5cc(C)ccc5[nH]4)cc3)n2)cc1` reads 78.3%. Regarding `CCOC(=O)COc1ccccc1C1CC(c2ccccc2)=NN1C(=O)c1cccs1` (stereo unspecified), the host macrophage viability was 108%.

Consider `CC(C)c1ccc2nc3sc(C(=O)NCC4CCCO4)c(N)c3cc2c1` (stereo unspecified), for which the host macrophage viability was 97.2%.

Turning to `Cn1c(NC(=O)/C=C\c2ccccc2)cc(=O)n(C)c1=O`, the host macrophage viability turned out to be 122%. For the compound `CCCc1cc(CNC(=O)c2c(-c3ccncc3)noc2C)on1`, the host macrophage viability came to 114%.

Take `Cc1ccc(-n2c(=O)c3cccnc3n2CC(=O)N2CCCCC2C)cc1` (stereo unspecified): the host macrophage viability was found to be 97.1%. `COc1ccc2c(c1OC)C(=O)OC2Nc1cccc(F)c1` (stereo unspecified): the host macrophage viability came out at 120%.

On to `CCN1CCN(CC(=O)NC2CCCC2)C(=O)C1=O`, for which the host macrophage viability was 111%. The value for `Cc1ccccc1-n1c(C)c(C)c2c1ncn1nc(-c3ccccc3O)nc21` was 122%; that for `Cn1c(=O)c2c(nc(S)n2Cc2ccc(F)cc2)n(C)c1=O` was 107 ± 12%. The value for `CCN1CCN(c2nc3ncn(CC(=O)NCc4ccccc4Cl)c(=O)c3s2)CC1` was 121%; that for `O=C(CSc1nnc2c(n1)-c1cccc3cccc-2c13)Nc1cc(Cl)ccc1Cl` was 120%. The result for `CCc1nc(SCC(=O)NCC2CCCO2)c2c(=O)n(C)c(=O)n(C)c2n1` (stereo unspecified) reads 116%. As to `C=CCOc1ccccc1NC(=O)c1ccnc2ccc(Cl)cc12`, the host macrophage viability was 121%. On to `CCn1nc(C)c(CCNC(=O)c2cc3c(=O)n(CCOC)ccc3nc2C)c1C`, for which the host macrophage viability is 119%. On to `CN1C(=O)N(C(=O)c2ccc(F)cc2F)c2cccnc2N1C`, for which the host macrophage viability stood at 115%.

As for `Nn1c(SCc2cccc(Cl)c2)nncc1=O`, the host macrophage viability was determined as 109%. The value for `CCOc1ccccc1Nc1nc(C)nc2c1c(C)c(C)n2-c1ccccc1` was 107%; that for `O=C(Nc1cccnc1)C(=O)Nc1cccc2ccccc12` was 102%; that for `Cc1ccc(-n2nnc3c(SCC(=O)Nc4ccc(C)c(Cl)c4)ncnc32)cc1` was 104 ± 5.3%. The value for `COc1ccc(CNC(=O)c2cnc3cc4c(cc3c2O)OCCO4)cc1` was 113%; that for `Cc1ccc(CNC(=O)C(C)C2CCN(C(=O)c3cc4ccccc4[nH]3)CC2)cc1` (stereo unspecified) was 95.6%. With `CC/N=C1\S/C(=C2\C(=O)Nc3ccccc32)C(=O)N1CC`, the host macrophage viability was found to be 114%. In the case of `CC(=O)Nc1cc(-c2noc(-c3ccsc3)n2)ccc1-n1ccnc1`, the host macrophage viability stood at 82.5%. For the compound `COc1ccccc1-c1cc(C(=O)NCc2ccccc2)c2c(-c3ccccc3)[nH]nc2n1`, the host macrophage viability was found to be 126%. On to `COc1ccccc1N1CCN(C(=O)Cn2cnc3onc(-c4ccc(C)cc4)c3c2=O)CC1`, for which the host macrophage viability was 125%. For `Cc1c(C)n(Cc2ccccc2)c2ncn3nc(-c4ccc(Cl)cc4)nc3c12`, the host macrophage viability was found to be 123%. With `COc1cccc(Nc2nc(N)nc(CN3CCc4ccccc4C3)n2)c1`, the host macrophage viability was 81.4%. `COc1ccc(OC)c2sc(N(Cc3cccnc3)C(=O)C3COc4ccccc4O3)nc12` (stereo unspecified): the host macrophage viability was 114%.

As to `CCn1c(=O)[nH]c(=O)c2cnc(-c3ccc(Cl)cc3)nc21`, the host macrophage viability stood at 112%. The value for `O=C(Nc1nc2c(F)cc(F)cc2s1)c1ccc2ccccc2c1` was 123%; that for `COC(=O)C(Cc1ccc(O)cc1)NC(=O)CCOc1ccc(OC)cc1` (stereo unspecified) was 125%. Consider `COc1ccc2cc(CCNC(=O)CCC3CCCC3)c(=O)[nH]c2c1`, for which the host macrophage viability was found to be 118%. The value for `COc1ccc(-n2c(N)cc(=O)nc2SCC(=O)N2CCCc3ccccc32)cc1` was 113%; that for `COc1ccc(-c2nnc3c(C(=O)N4CCC(O)(c5ccc(Cl)cc5)CC4)cccn23)cc1` was 122%. Take `Cn1cnc2c(C(=O)O)nn(-c3ccccc3)c2c1=O`: the host macrophage viability came out at 92.9%.

With `Cc1ccc(C)c(NC(=O)c2cccnc2-c2ccsc2)c1`, the host macrophage viability came out at 84.6%.

Regarding `O=Cc1ccc(OC(=O)CC2SC(=O)NC2=O)cc1` (stereo unspecified), the host macrophage viability worked out at 111%.

In the case of `O=C(Nc1ccc2oc(-c3ccccc3F)cc(=O)c2c1)c1ccncc1`, the host macrophage viability is 110%. The result for `Cn1c(SCC(=O)NCCCN2CCOCC2)nc2ccccc2c1=O` reads 124%.

Take `COC(=O)c1c(NC(=O)CC2NCCNC2=O)sc2c1CCCC2` (stereo unspecified): the host macrophage viability was 127%. For `O=C(COc1ncnc2ccccc12)NC(c1ccccc1)c1cccnc1` (stereo unspecified), the host macrophage viability was 125%. Take `CCOc1ccc(NC(=O)c2cnc3c(c(C)nn3-c3ccccc3)c2Cl)cc1`: the host macrophage viability was determined as 109%. The value for `O=C(Nc1cc(Cl)cc(Cl)c1)c1ccc(N2C(=O)CCC2=O)cc1` was 117%; that for `O=C(NCCn1cccn1)c1ncoc1-c1ccc(F)cc1` was 121%; that for `CCc1nc(-n2nc(C)cc2N)c2c3c(sc2n1)CCC3` was 95.4%. `Cc1ccccc1C(=O)/C(C#N)=C1\Nc2ccccc2N1C`: the host macrophage viability was 112%. Turning to `CCOC(=O)CCn1c(=O)c2c(nc3n(CCCOC)c(C)c(C)n23)n(C)c1=O`, the host macrophage viability turned out to be 120%. As for `Cc1sc2nc(C)n3c(=O)n(CC(=O)N4CCOCC4)nc3c2c1C`, the host macrophage viability was found to be 98.5%.

As for `COCCCn1c(SCC(=O)Nc2ccccc2C(=O)OC)nc2c(sc3ccccc32)c1=O`, the host macrophage viability was determined as 112%. As to `Cc1oc(-c2ccno2)cc1S(=O)(=O)NC(C)CCc1ccccc1` (stereo unspecified), the host macrophage viability was found to be 98%. On to `O=C(Nc1cccc(-c2nnc(-c3ccccc3)o2)c1)Nc1ccc2c(c1)OCCO2`, for which the host macrophage viability is 106%. As to `CCc1ccc2oc(C(=O)Nc3nc(-c4ccc(C)s4)ns3)cc(=O)c2c1`, the host macrophage viability is 113%.

Regarding `Cc1oc2ncnc(OCC(=O)Nc3ccc(S(N)(=O)=O)cc3)c2c1C`, the host macrophage viability was determined as 108%.

Consider `N#C/C(=C\c1ccc(-c2cccc(Cl)c2)o1)c1nc2ccccc2c(=O)[nH]1`, for which the host macrophage viability amounted to 128%. The value for `COc1ccc(NC(=S)N2CCC(NC(=O)c3ccccc3)CC2)c(OC)c1` was 106%; that for `CCN(C(=O)CSc1nccnc1N1CCN(c2ccccc2)CC1)c1ccccc1` was 105%.
